Assay [1] has as its target cellular prion protein (PrPc), human (human (endogenous in post-mortem temporal cortex)) (UniProt P04156). The assay can be described thus: FRET or BRET.
The target of assay [2] is progesterone receptor membrane component 1 (PGRMC1), human (human (endogenous in post-mortem temporal cortex)) (UniProt O00264). The assay can be described thus: FRET or BRET; array tomography with sensitized emission FRET (Cy3 donor, Cy5 acceptor on antibodies) on 70 nm sections of human Alzheimer's temporal cortex; pixels where donor and acceptor overlap within post synapses (PSD95 objects); Aβ labelled with 6E10; percent of pixels with any FRET signal. In general terms: BRET reads energy transfer from a luciferase to a nearby fluorophore.

These are yes or no findings as the source states them, for the method shown. Binding seen in cells or lysates may run through a third protein. Some entries that bind do so weakly or less than the wild type.

Turning to “transmembrane protein 97 (TMEM97), human (from UniProt Q5BJF2 1-176) (receptor)”, the binding result in assay [1] and in assay [2] was “binds” each time.

The values are drawn from paper PMC10847197.
